Measurements taken from the M2OR odorant receptor database.
This is one part of the list. Calls are pooled over several reports, among them a noisy single-well screen.

How the values were obtained:
Settings in all cases: stereoisomer not certain
O13J1 = system: T1, O13J1
T1 sequence (whole entry): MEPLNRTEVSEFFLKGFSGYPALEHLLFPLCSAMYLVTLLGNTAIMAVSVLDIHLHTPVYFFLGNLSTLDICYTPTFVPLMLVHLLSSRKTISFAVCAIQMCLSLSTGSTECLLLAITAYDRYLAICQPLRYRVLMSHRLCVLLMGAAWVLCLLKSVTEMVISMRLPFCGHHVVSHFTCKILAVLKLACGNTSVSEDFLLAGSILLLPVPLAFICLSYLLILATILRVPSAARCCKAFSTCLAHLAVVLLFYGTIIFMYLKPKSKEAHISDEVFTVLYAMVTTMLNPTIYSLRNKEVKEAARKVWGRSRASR
Procedure, shortened: (§1)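 Whether a receptor–molecule pair is responsive (active) rests on the original authors' judgment that its measured signal was statistically different from baseline. Pairs without that judgment are non-responsive (inactive). Sources used varied assay methods, commonly transient luciferase assays in mammalian cell lines.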

O14A2 = system: T2, O14A2
T2 sequence (whole entry): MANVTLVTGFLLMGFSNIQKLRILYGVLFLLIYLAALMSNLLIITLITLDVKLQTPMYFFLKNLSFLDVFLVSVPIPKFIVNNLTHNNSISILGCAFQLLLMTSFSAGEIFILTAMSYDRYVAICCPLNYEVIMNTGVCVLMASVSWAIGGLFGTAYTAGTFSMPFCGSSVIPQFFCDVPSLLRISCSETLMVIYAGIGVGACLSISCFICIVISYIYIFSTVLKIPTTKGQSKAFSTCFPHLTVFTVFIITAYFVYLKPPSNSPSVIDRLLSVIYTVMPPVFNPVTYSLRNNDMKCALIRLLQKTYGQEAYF
Procedure, shortened: as §1

O14AG = system: T3, O14AG
T3 sequence (whole entry): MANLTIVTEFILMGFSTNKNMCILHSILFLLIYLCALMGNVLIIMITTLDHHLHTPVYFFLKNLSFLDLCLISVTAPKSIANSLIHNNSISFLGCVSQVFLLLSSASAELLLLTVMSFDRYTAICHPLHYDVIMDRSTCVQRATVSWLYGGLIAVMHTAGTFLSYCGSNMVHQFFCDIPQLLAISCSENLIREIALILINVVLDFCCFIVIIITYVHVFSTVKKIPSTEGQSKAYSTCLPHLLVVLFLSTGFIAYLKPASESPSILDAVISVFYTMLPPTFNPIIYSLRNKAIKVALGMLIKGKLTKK
Procedure, shortened: as §1

O14CZ = system: T4, O14CZ
T4 sequence (whole entry): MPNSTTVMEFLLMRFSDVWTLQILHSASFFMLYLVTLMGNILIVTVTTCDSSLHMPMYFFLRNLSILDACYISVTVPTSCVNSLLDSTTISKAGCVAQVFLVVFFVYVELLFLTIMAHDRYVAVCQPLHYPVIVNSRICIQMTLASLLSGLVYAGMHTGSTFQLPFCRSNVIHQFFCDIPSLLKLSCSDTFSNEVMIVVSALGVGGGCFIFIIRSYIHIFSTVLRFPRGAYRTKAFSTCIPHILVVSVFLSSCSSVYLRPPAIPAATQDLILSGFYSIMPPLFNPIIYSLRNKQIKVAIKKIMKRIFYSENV
Procedure, shortened: as §1

O14I1 = system: T5, O14I1
T5 sequence (whole entry): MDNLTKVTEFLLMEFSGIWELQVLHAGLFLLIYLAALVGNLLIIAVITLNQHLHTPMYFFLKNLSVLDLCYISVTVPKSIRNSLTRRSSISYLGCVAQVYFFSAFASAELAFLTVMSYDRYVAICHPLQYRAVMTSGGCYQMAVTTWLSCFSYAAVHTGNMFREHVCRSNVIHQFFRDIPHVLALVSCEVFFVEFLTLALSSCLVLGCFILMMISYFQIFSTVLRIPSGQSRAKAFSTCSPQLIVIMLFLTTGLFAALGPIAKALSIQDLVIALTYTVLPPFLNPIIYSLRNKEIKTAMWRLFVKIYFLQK
Procedure, shortened: as §1

O14J1 = system: T6, O14J1
T6 sequence (whole entry): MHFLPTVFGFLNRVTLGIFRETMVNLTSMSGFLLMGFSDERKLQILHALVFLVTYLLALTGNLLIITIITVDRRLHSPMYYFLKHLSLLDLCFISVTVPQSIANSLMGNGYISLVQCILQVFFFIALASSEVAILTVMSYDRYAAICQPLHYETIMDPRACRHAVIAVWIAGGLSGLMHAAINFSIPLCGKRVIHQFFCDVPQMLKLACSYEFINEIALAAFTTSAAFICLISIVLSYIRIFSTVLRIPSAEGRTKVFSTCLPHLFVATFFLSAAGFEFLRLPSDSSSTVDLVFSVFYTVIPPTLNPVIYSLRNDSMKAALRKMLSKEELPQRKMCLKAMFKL
Procedure, shortened: as §1

O14K1 = system: T7, O14K1
T7 sequence (whole entry): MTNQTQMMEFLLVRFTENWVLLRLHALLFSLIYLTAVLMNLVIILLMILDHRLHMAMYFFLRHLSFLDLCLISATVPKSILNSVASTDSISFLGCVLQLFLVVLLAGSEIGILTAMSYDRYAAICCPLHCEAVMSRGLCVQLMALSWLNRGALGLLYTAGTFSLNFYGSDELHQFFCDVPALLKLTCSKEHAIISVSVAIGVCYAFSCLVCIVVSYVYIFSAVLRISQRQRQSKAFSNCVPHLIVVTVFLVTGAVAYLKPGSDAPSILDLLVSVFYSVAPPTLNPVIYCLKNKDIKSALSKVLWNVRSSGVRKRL
Procedure, shortened: as §1

O14L1 = system: T8, O14L1
T8 sequence (whole entry): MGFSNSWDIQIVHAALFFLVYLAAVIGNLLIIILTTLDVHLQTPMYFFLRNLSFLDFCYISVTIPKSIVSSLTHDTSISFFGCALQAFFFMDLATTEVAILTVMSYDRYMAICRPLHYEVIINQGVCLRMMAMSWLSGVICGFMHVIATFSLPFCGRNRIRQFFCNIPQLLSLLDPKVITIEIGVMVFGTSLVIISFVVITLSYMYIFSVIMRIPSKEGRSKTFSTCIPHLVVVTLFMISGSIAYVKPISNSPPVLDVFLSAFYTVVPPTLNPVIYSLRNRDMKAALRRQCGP
Procedure, shortened: as §1

O2A14 = system: T9, O2A14
T9 sequence (whole entry): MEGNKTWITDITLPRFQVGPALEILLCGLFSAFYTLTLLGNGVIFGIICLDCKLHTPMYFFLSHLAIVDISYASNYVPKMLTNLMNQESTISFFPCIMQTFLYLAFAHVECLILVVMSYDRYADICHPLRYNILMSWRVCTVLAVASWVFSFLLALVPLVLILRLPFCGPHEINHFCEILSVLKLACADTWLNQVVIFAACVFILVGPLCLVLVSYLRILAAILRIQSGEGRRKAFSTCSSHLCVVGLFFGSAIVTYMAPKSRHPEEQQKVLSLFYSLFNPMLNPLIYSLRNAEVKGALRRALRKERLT
Procedure, shortened: as §1

O2AE1 = system: T10, O2AE1
T10 sequence (whole entry): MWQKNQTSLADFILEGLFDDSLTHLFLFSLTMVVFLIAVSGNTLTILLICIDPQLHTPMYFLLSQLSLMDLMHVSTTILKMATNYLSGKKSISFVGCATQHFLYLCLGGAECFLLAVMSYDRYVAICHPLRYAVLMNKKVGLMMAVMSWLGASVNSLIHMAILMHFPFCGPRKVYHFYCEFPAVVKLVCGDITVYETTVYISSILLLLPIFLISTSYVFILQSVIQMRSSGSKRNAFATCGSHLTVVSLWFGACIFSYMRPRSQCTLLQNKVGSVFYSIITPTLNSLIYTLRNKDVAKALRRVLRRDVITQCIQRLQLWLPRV
Procedure, shortened: as §1

Measured: odorant receptor agonist call;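 also: active if original authors judged signal statistically different from baseline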

CCCCOC(C)=O
inactive: O13J1 | O14A2 | O14AG | O14CZ | O14I1 | O14J1 | O14K1 | O14L1 | O2A14 | O2AE1

CCC(C)=O
inactive: O13J1 | O14A2 | O14AG | O14CZ | O14I1 | O14J1 | O14K1 | O14L1 | O2A14 | O2AE1

CS
inactive: O13J1 | O14A2 | O14AG | O14CZ | O14I1 | O14J1 | O14K1 | O14L1 | O2A14 | O2AE1
